PubChem BioAssay AID1508588 | Peter MacCallum Cancer Centre – 2020

- Assay: 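Knock-downs boosting vemurafenib effects on melanoma cell growth or lactate release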 (primary screen)
- Cells: human WM266.4 melanoma cells (BRAF V600 mutant)
- Reagents: siRNA pool against human genes, 40 nM
- Duration: 96 h from transfection to read-out
- Conditions: vemurafenib 300 nM (about IC25), added 48 h after transfection, for 48 h; comparison arm got DMSO vehicle only
- Measurement: 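Ratios to non-targeting siRNA for cell gain, counted as DAPI nuclei after minus before drug and averaged over two replicates, and for absorbance-read medium lactate per cell; both binned into fold-change classes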
- Direction: cell gain with vemurafenib: higher = more cell gain than with non-targeting siRNA; lactate per cell with vemurafenib: higher = more lactate made per cell
- Rule for the call: 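Enhancement is called by pairing each knock-down's vehicle-arm and drug-arm fold-change classes for viability or glycolysis; which class combinations qualify is not given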
- Meaning of the calls: active = enhances vemurafenib effect; inactive = no enhancement seen
In all, the deposit lists about 18,000 reagents; this is an unselected part. 790 of them (4.4%) were called active. 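Calls rest on a combination of fold-change classes in drug and vehicle arms, not all shown here.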 Entries without a mark were called inactive.

no.	target gene	cell gain with vemurafenib	lactate per cell with vemurafenib
1	APCDD1L	0.08	2.28
2	SMG9	0.63	1.38
3	PDHB	0.4	0.46
4	CRTC3	-0.07 (active)	0.56
5	GJD3	0.75	0.6
6	MCPH1	0.6	1.72
7	RNASEH1	1.37	0.53
8	KRT18	0.23	1.46
9	SYBU	0.58	1.56
10	TRUB1	1.05	0.54
11	FAM120A	0.18	1.65

Part of the list above, reformatted:
{"target gene": "RNASEH1", "cell gain with vemurafenib": 1.37, "lactate per cell with vemurafenib": 0.53}
{"target gene": "KRT18", "cell gain with vemurafenib": 0.23, "lactate per cell with vemurafenib": 1.46}
{"target gene": "SYBU", "cell gain with vemurafenib": 0.58, "lactate per cell with vemurafenib": 1.56}

Next entries:
no.	target gene	cell gain with vemurafenib	lactate per cell with vemurafenib
12	OR8H1	0.92	0.9
13	PARVG	0.2	1.17
14	HLA-DRB3	0.43	1.64
15	HSD11B1L	0.39	0.85
16	PCDHGB6	1.01	0.6
17	SPANXN5	0.52	1.68
18	EZH2	0.71	0.8
19	CHCT1	0.78	0.76
20	MMP9	0.51	0.92
21	GYPE	0.44	1.25
22	PHF11	0.98	0.78
23	HIVEP2	1.28 (active)	0.42
24	ETV6	0.86	0.68
25	NOTCH3	1.14	0.8
26	NCOA2	0.8	0.6
27	ZBTB48	0.54	0.85
28	GUCY2F	0.75	0.82
29	C9orf43	0.96	0.36
30	SPAM1	0.91	0.78
31	CABP4	0.6	1.29
32	FGF11	1.22	0.74
33	ABRAXAS1	0.47	0.42
34	IGF2	0.89	0.98
